Measured data: PubChem BioAssay AID652243 (Drosophila RNAi Screening Center, 2013)

Screen: 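Knock-downs that decrease or increase androgen receptor reporter signal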 (primary screen)
System: Drosophila S2R+ cells
Knock-down reagent: long dsRNA against Drosophila genes
Timing: 72 h (48 h, then 24 h hormone)
Treatment: synthetic androgen R1881 at 10 nM for 24 h
Measurement: 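Per-well raw luminescence of the androgen-driven firefly reporter and of the Renilla control, two replicates each, without normalisation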
Scale: firefly reporter light: higher = more light from androgen-responsive reporter; Renilla control light: higher = more constitutive control signal (cell number, transfection)
Active means: 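Hit when the log firefly-to-Renilla ratio dropped or increased by a fixed fold versus the mean of GFP or LacZ controls across duplicate plates; lowering cut given as 1.5 and as 3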
Calls: active = hit: reporter lowered or raised; inactive = no hit
In all, the deposit lists about 24,000 reagents; below is a random part of those with a known target gene and a result. In the full data, 246 (1%) were called active. 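Plates not normalised; calls are printed but the firefly/Renilla ratio behind them is not deposited; fold cut for lowering reported inconsistently.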 Raw values vary from plate to plate and are shown uncorrected. Entries without a mark were called inactive. A plus sign joins genes that one reagent is predicted to hit. Reagent sequences are not shown. The record does not give: the amount of reagent.

After knock-down of Tengl2 [DRSC21968], the record shows firefly reporter light, replicate 1 = 7.04e5; firefly reporter light, replicate 2 = 7.12e5; Renilla control light, replicate 1 = 1.76e6; Renilla control light, replicate 2 = 1.42e6. Tengl2 [DRSC29284] showed firefly reporter light, replicate 1 = 5.79e5; firefly reporter light, replicate 2 = 5.19e5; Renilla control light, replicate 1 = 1.46e6; Renilla control light, replicate 2 = 1.36e6. ras [DRSC18825] showed firefly reporter light, replicate 1 = 1.25e5; firefly reporter light, replicate 2 = 98857; Renilla control light, replicate 1 = 8.35e5; Renilla control light, replicate 2 = 7.35e5. After knock-down of ras [DRSC27137], the screen gave firefly reporter light, replicate 1 = 2.63e5; firefly reporter light, replicate 2 = 2.13e5; Renilla control light, replicate 1 = 6.47e5; Renilla control light, replicate 2 = 6.86e5. Silencing of Amy-d + Amy-p [DRSC21242] gave: firefly reporter light, replicate 1 = 4.32e5; firefly reporter light, replicate 2 = 3.17e5; Renilla control light, replicate 1 = 4.05e5; Renilla control light, replicate 2 = 3.84e5. Knock-down of Amy-d + Amy-p [DRSC24129] gave: firefly reporter light, replicate 1 = 6.23e5; firefly reporter light, replicate 2 = 9.84e5; Renilla control light, replicate 1 = 6.49e5; Renilla control light, replicate 2 = 6.66e5.

Against CG42699 [DRSC18076], the values are firefly reporter light, replicate 1 = 41922; firefly reporter light, replicate 2 = 37313; Renilla control light, replicate 1 = 7.12e5; Renilla control light, replicate 2 = 3.00e5. Knock-down of CG42699 [DRSC18341] came out at: firefly reporter light, replicate 1 = 1.32e5; firefly reporter light, replicate 2 = 1.22e5; Renilla control light, replicate 1 = 3.76e6; Renilla control light, replicate 2 = 3.02e6. For CG42699 [DRSC25221], the entry reads firefly reporter light, replicate 1 = 6.28e5; firefly reporter light, replicate 2 = 8.91e5; Renilla control light, replicate 1 = 8.37e5; Renilla control light, replicate 2 = 1.05e6. CG6290 [DRSC19979] scored firefly reporter light, replicate 1 = 62872; firefly reporter light, replicate 2 = 1.01e5; Renilla control light, replicate 1 = 7.23e5; Renilla control light, replicate 2 = 8.52e5. For CG6290 [DRSC25483], the values are firefly reporter light, replicate 1 = 1.20e6; firefly reporter light, replicate 2 = 1.35e6; Renilla control light, replicate 1 = 1.10e6; Renilla control light, replicate 2 = 1.24e6. With knock-down of CG8176 [DRSC16394], the screen gave firefly reporter light, replicate 1 = 91340; firefly reporter light, replicate 2 = 91328; Renilla control light, replicate 1 = 1.74e6; Renilla control light, replicate 2 = 1.55e6.

CG7607 [DRSC10889] showed firefly reporter light, replicate 1 = 3.72e5; firefly reporter light, replicate 2 = 3.47e5; Renilla control light, replicate 1 = 3.32e6; Renilla control light, replicate 2 = 3.53e6.

2 consecutive records from above:
CG6290 [DRSC25483] → firefly reporter light, replicate 1: 1.20e6; firefly reporter light, replicate 2: 1.35e6; Renilla control light, replicate 1: 1.10e6; Renilla control light, replicate 2: 1.24e6
CG8176 [DRSC16394] → firefly reporter light, replicate 1: 91340; firefly reporter light, replicate 2: 91328; Renilla control light, replicate 1: 1.74e6; Renilla control light, replicate 2: 1.55e6

Additional records follow.
For stumps [DRSC15332], the entry reads firefly reporter light, replicate 1 = 1.03e5; firefly reporter light, replicate 2 = 1.27e5; Renilla control light, replicate 1 = 1.68e6; Renilla control light, replicate 2 = 1.90e6. Depletion of stumps [DRSC17073] resulted in: firefly reporter light, replicate 1 = 65169; firefly reporter light, replicate 2 = 50543; Renilla control light, replicate 1 = 7.02e5; Renilla control light, replicate 2 = 5.91e5. elfless [DRSC02451] gave firefly reporter light, replicate 1 = 2.06e5; firefly reporter light, replicate 2 = 2.23e5; Renilla control light, replicate 1 = 1.75e6; Renilla control light, replicate 2 = 2.21e6. After knock-down of Tehao [DRSC03449], the screen gave firefly reporter light, replicate 1 = 1.63e5; firefly reporter light, replicate 2 = 1.34e5; Renilla control light, replicate 1 = 1.24e6; Renilla control light, replicate 2 = 1.28e6. After knock-down of RalGPS [DRSC06941] the results were firefly reporter light, replicate 1 = 1.12e6; firefly reporter light, replicate 2 = 9.10e5; Renilla control light, replicate 1 = 1.69e6; Renilla control light, replicate 2 = 1.53e6. After knock-down of RalGPS [DRSC27139] the results were firefly reporter light, replicate 1 = 4.98e5; firefly reporter light, replicate 2 = 4.00e5; Renilla control light, replicate 1 = 4.90e5; Renilla control light, replicate 2 = 4.25e5.

Against Acp33A + CG15841 (retired record) [DRSC01859], the entry reads firefly reporter light, replicate 1 = 2.50e5; firefly reporter light, replicate 2 = 3.15e5; Renilla control light, replicate 1 = 1.71e6; Renilla control light, replicate 2 = 1.84e6. CG6628 [DRSC10679] scored firefly reporter light, replicate 1 = 1.89e5; firefly reporter light, replicate 2 = 2.08e5; Renilla control light, replicate 1 = 1.99e6; Renilla control light, replicate 2 = 1.97e6. Knock-down of fz3 [DRSC18779] gave: firefly reporter light, replicate 1 = 2.46e5; firefly reporter light, replicate 2 = 2.38e5; Renilla control light, replicate 1 = 2.68e6; Renilla control light, replicate 2 = 3.18e6. For fz3 [DRSC29682], the values are firefly reporter light, replicate 1 = 6.60e5; firefly reporter light, replicate 2 = 5.98e5; Renilla control light, replicate 1 = 1.15e6; Renilla control light, replicate 2 = 1.15e6. Against CG31949 [DRSC00110], the values are firefly reporter light, replicate 1 = 2.50e5; firefly reporter light, replicate 2 = 3.22e5; Renilla control light, replicate 1 = 7.08e5; Renilla control light, replicate 2 = 7.88e5. sals [DRSC14925] scored firefly reporter light, replicate 1 = 89360; firefly reporter light, replicate 2 = 1.08e5; Renilla control light, replicate 1 = 4.40e5; Renilla control light, replicate 2 = 4.46e5.

Silencing of sals [DRSC16113] resulted in: firefly reporter light, replicate 1 = 1.16e5; firefly reporter light, replicate 2 = 1.50e5; Renilla control light, replicate 1 = 1.79e6; Renilla control light, replicate 2 = 1.89e6. Knock-down of sals [DRSC28473] came out at: firefly reporter light, replicate 1 = 3.55e5; firefly reporter light, replicate 2 = 1.01e6; Renilla control light, replicate 1 = 7.05e5; Renilla control light, replicate 2 = 1.47e6.
